Data taken from patent US20220168402A1, “PIP4Ks SUPPRESS INSULIN SIGNALING AND ENHANCE IMMUNE FUNCTION THROUGH A CATALYTIC-INDEPENDENT MECHANISM” (Cornell University, priority 2019, published 2022).
No constants are given. Whether binding was seen depends on the method and setting. Binding seen in cells or lysates may run through a third protein. Some entries that bind do so weakly or less than the wild type. Tags and fused reporters may be left off the sequences shown.

Chains of the proteins cited; added tags and fusions are not shown.
UniProt Q99755: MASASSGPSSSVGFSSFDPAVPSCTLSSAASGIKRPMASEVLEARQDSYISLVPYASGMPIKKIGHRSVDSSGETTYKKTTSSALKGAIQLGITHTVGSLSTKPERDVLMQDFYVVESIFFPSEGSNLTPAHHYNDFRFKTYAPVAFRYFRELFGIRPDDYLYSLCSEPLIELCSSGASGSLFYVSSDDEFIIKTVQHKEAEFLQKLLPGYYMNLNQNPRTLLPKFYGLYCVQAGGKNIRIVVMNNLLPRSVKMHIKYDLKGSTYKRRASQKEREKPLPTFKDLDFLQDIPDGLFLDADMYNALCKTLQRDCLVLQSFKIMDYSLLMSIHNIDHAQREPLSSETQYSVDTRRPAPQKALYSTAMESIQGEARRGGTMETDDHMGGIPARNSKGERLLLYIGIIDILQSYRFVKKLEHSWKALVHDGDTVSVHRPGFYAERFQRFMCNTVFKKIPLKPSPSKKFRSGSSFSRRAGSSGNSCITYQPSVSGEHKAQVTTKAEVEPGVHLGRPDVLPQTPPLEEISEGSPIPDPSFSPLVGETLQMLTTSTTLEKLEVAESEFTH

Assays:
[1] = biological target: endogenous PIP5K1A (293T lysate) (UniProt Q99755); test: GST pulldown from 293T lysates, GST or GST-PIP4K2C beads as bait, western blot (FIG. 3G)
[2] = biological target: endogenous PIP5K1A (293T lysate) (UniProt Q99755); test: GST pulldown from 293T lysates, GST-PIP4K2C beads as bait, western blot (FIG. 3J)
[3] = biological target: endogenous PIP5K1A (293T lysate) (UniProt Q99755); test: GST pulldown from 293T lysates, western blot of pulldown and flow-through (FIG. 3G-3H)

Measured: binding

B1: GST-PIP4K2C (enzyme, not shown: a dimerising Fc or GST)
chain: MASSSVPPATVSAATAGPGPGFGFASKTKKKHFVQQKVKVFRAADPLVGVFLWGVAHSINELSQVPPPVMLLPDDFKASSKIKVNNHLFHRENLPSHFKFKEYCPQVFRNLRDRFGIDDQDYLVSLTRNPPSESEGSDGRFLISYDRTLVIKEVSSEDIADMHSNLSNYHQYIVKCHGNTLLPQFLGMYRVSVDNEDSYMLVMRNMFSHRLPVHRKYDLKGSLVSREASDKEKVKELPTLKDMDFLNKNQKVYIGEEEKKIFLEKLKRDVEFLVQLKIMDYSLLLGIHDIIRGSEPEEEAPVREDESEVDGDCSLTGPPALVGSYGTSPEGIGGYIHSHRPLGPGEFESFIDVYAIRSAEGAPQKEVYFMGLIDILTQYDAKKKAAHAAKTVKHGAGAEISTVHPEQYAKRFLDFITNIFA
binds: [1] | [2] | [3]
